Reference: PubChem BioAssay AID504774 (Drosophila RNAi Screening Center, 2011)
Purpose: 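Fly genes whose loss alters survival after alkylation damage to DNA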 (primary screen). System: Drosophila Kc167 cells. Reagent: long dsRNA against Drosophila genes, about 0.25 µg dsRNA per well. Duration: about 6 days: 3 days knock-down, then 3 days with or without MMS. Conditions: methyl methanesulphonate 0.004% (w/v) for 3 days after knock-down. Measured: 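ATP-dependent luminescence as a measure of live cells in MMS-exposed wells, quantile normalised within each plate, with replicate values also given as a mean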. Reading the numbers: mean viability with MMS and viability with MMS: higher = more surviving cells after MMS.
In all, the deposit lists about 23,000 reagents; shown is an unselected part of those with a known target gene and a result. 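Values are quantile-normalised luminescence on an arbitrary scale; higher means more cells surviving MMS.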 Names joined by + are all predicted targets of the reagent. No sequences are given here.

The first 8 entries as a preview:
no.	gene knocked down	dsRNA	mean viability with MMS	viability with MMS, replicate 1	viability with MMS, replicate 2
1	Pi4KIIIalpha (GeneID 31247)	DRSC18655	3.73e6	4.44e6	3.97e6
2	snRNA:U1:95Cc + snRNA:U1:95Cb	DRSC13641	3.60e6	4.08e6	4.07e6
3	eIF2Bgamma (GeneID 36722)	DRSC07100	3.42e6	3.96e6	3.81e6
4	CG15478 (GeneID 31679)	DRSC18057	3.35e6	3.81e6	3.79e6
5	Gr66a (GeneID 38935)	DRSC10783	3.56e6	4.18e6	3.90e6
6	Prim1 (GeneID 38942)	DRSC11137	3.28e6	3.65e6	3.70e6
7	CG8677 (GeneID 35397)	DRSC03107	3.60e6	3.99e6	4.13e6
8	CG11404 (GeneID 40474)	DRSC11656	3.34e6	3.73e6	3.79e6

The listing, repeating the preview:
no.	gene knocked down	dsRNA	mean viability with MMS	viability with MMS, replicate 1	viability with MMS, replicate 2
1	Pi4KIIIalpha (GeneID 31247)	DRSC18655	3.73e6	4.44e6	3.97e6
2	snRNA:U1:95Cc + snRNA:U1:95Cb	DRSC13641	3.60e6	4.08e6	4.07e6
3	eIF2Bgamma (GeneID 36722)	DRSC07100	3.42e6	3.96e6	3.81e6
4	CG15478 (GeneID 31679)	DRSC18057	3.35e6	3.81e6	3.79e6
5	Gr66a (GeneID 38935)	DRSC10783	3.56e6	4.18e6	3.90e6
6	Prim1 (GeneID 38942)	DRSC11137	3.28e6	3.65e6	3.70e6
7	CG8677 (GeneID 35397)	DRSC03107	3.60e6	3.99e6	4.13e6
8	CG11404 (GeneID 40474)	DRSC11656	3.34e6	3.73e6	3.79e6
9	CG5245 (GeneID 41530)	DRSC15750	3.65e6	4.10e6	4.09e6
10	Cds (GeneID 43950)	DRSC10938	3.55e6	4.03e6	4.02e6
11	Pgant6 (GeneID 38346)	DRSC08552	3.35e6	3.84e6	3.77e6
12	CG33346 (GeneID 2768690)	DRSC22898	3.44e6	3.94e6	3.92e6
13	CG9518 (GeneID 32416)	DRSC20194	3.62e6	4.14e6	4.05e6
14	CG11029 (GeneID 33804)	DRSC02119	3.48e6	4.03e6	3.87e6
15	CG5866 (GeneID 42097)	DRSC15900	3.59e6	4.05e6	4.13e6
16	nord (GeneID 37882)	DRSC04210	3.55e6	3.94e6	4.11e6
17	nord (GeneID 37882)	DRSC04361	3.69e6	4.20e6	4.15e6
18	CG15870 (GeneID 36446)	DRSC06588	3.53e6	3.92e6	4.04e6
19	CG17896 (GeneID 30995)	DRSC18502	3.52e6	3.94e6	4.07e6
20	ppk22 (GeneID 318593)	DRSC22093	3.53e6	3.99e6	4.01e6
21	Acsx4 (GeneID 42355)	DRSC14311	3.36e6	3.80e6	3.86e6
22	CG31189 (GeneID 42487)	DRSC16198	3.39e6	3.85e6	3.87e6
23	NP15.6 (GeneID 42282)	DRSC16756	3.50e6	4.08e6	3.86e6
24	MSBP (GeneID 32548)	DRSC20146	3.54e6	4.28e6	3.76e6
25	Coq3 (GeneID 35383)	DRSC03168	3.51e6	4.12e6	3.85e6
26	CG4577 (GeneID 33291)	DRSC00658	3.72e6	4.19e6	4.30e6
27	Ir56b (GeneID 37250)	DRSC06543	3.50e6	3.90e6	4.02e6
28	disco-r (GeneID 64875)	DRSC20173	3.70e6	4.11e6	4.21e6
29	disco-r (GeneID 64875)	DRSC20174	3.56e6	4.03e6	4.05e6
30	CG16922 (retired record) (GeneID 32030)	DRSC19758	3.13e6	3.68e6	3.72e6
31	CG16922 (retired record) (GeneID 32030)	DRSC23140	3.59e6	4.12e6	4.03e6
32	CG15357 (GeneID 50192)	DRSC00387	3.54e6	4.01e6	4.02e6
33	CG13869 + CG11099	DRSC06428	3.49e6	3.99e6	3.91e6
34	CG8945 (GeneID 32693)	DRSC20129	3.52e6	4.03e6	3.95e6
35	CG8945 (GeneID 32693)	DRSC20130	3.50e6	3.97e6	3.96e6
36	POSH (GeneID 36990)	DRSC07499	3.70e6	4.25e6	4.10e6
37	Caf1-55 (GeneID 41836)	DRSC16596	3.39e6	3.83e6	3.83e6
38	CG4995 (GeneID 34390)	DRSC02801	3.92e6	4.67e6	4.30e6
39	CG7483 (GeneID 40987)	DRSC16249	3.55e6	3.97e6	4.09e6
40	CG7483 (GeneID 40987)	DRSC22432	2.92e6	3.72e6	3.69e6
41	CG16743 (GeneID 34517)	DRSC02514	3.77e6	4.31e6	4.26e6
42	shps (GeneID 42892)	DRSC14614	3.64e6	4.19e6	4.07e6
43	Cyp4d8 (GeneID 38841)	DRSC11131	3.56e6	4.05e6	4.04e6
44	Nach (GeneID 36864)	DRSC07478	3.50e6	3.91e6	4.02e6
45	bumpel (GeneID 41368)	DRSC16100	3.76e6	4.15e6	4.20e6
46	CG5946 (GeneID 39336)	DRSC10560	3.57e6	4.07e6	4.01e6
47	salto (GeneID 36332)	DRSC06291	3.61e6	4.16e6	4.04e6
48	MFS12 (GeneID 35745)	DRSC07268	3.54e6	4.09e6	3.95e6
49	CG5958 (GeneID 34022)	DRSC02915	3.40e6	3.75e6	3.90e6
50	CG18635 (GeneID 37031)	DRSC06780	1.95e6	4.11e6	
51	zpg (GeneID 251414)	DRSC09702	3.68e6	4.16e6	4.19e6
52	CG42568 + DnaJ-60	DRSC04207	3.58e6	4.04e6	4.08e6
53	CG42568 + DnaJ-60	DRSC04611	3.48e6	3.82e6	3.97e6
54	CG11370 (GeneID 40486)	DRSC11653	3.45e6	3.92e6	3.89e6
55	Kdm2 (GeneID 41090)	DRSC14286	3.45e6	3.89e6	3.91e6
56	RpL11 (GeneID 37235)	DRSC07537	2.96e6	3.58e6	3.58e6
57	CG11007 (GeneID 37249)	DRSC06023	3.57e6	4.00e6	4.11e6
58	pasha (GeneID 43728)	DRSC15295	3.50e6	4.04e6	3.90e6
59	Socs36E (GeneID 35085)	DRSC02455	3.61e6	4.11e6	4.12e6
60	Kif19A (GeneID 41717)	DRSC16576	1.85e6	4.05e6	3.96e6
61	fz2 (GeneID 40090)	DRSC09595	3.68e6	4.29e6	4.03e6
62	fz2 (GeneID 40090)	DRSC10087	3.42e6	3.85e6	3.88e6
63	fz2 (GeneID 40090)	DRSC11349	3.57e6	4.10e6	3.99e6
64	CG33792 (GeneID 3772111)	DRSC05355	3.68e6	3.97e6	4.28e6
65	crol (GeneID 34592)	DRSC03514	3.77e6	4.31e6	4.27e6
66	crol (GeneID 34592)	DRSC21348	3.61e6	4.13e6	4.04e6
67	Alas (GeneID 37815)	DRSC04044	3.24e6	4.18e6	3.74e6
68	Cyp6a19 (GeneID 36662)	DRSC07379	3.36e6	3.70e6	3.88e6
